PubChem BioAssay AID1259254, NCATS | 2017

Purpose: 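Gene knock-downs that lead to re-replication, shown by excess G2 DNA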 (primary screen)
Cell system: human HCT116 colorectal cancer cells
Reagent: single siRNA against human genes
Timing: 3 days
Measurement: 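Nuclei stained with Hoechst and imaged; cell-cycle phase assigned by DNA content; G2 share scaled per plate, non-targeting siRNA 0%, GMNN siRNA 100%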
Reading the numbers: G2 robust z-score: higher = more G2 cells, more excess DNA replication
Active means: 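An siRNA counts as active if its G2 robust z-score lies at least 5 MADs above the screen median; here such calls match roughly 38% of GMNN control or more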
Here is one part, drawn at random, of about 59,000 reagents. About 1,550 of them (2.6%) were called active. 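G2 share is only a proxy for re-replication; each gene was hit by three separate siRNAs, and active genes were retested.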 Entries without a mark were called inactive. Further read-outs or replicates are left out here. The record does not give: the amount of reagent.

OSBP2 [SID160736849] gave G2 robust z-score 0.333. With knock-down of OSBP2 [SID160736850] the results were G2 robust z-score 8.87 (active). Knock-down of OSBP2 [SID160736851] gave: G2 robust z-score 0.291. Knock-down of TIA1 [SID160718066] came out at: G2 robust z-score 1.52. After knock-down of TIA1 [SID160718067], the record shows G2 robust z-score -0.564. TIA1 [SID160718068] showed G2 robust z-score 1.99.

Knock-down of CCDC198 [SID160743191] gave: G2 robust z-score -1.03. Knock-down of CCDC198 [SID160743192] came out at: G2 robust z-score -0.785. CCDC198 [SID160743193] gave G2 robust z-score -0.19.

Part of the list above, reformatted.
gene | PubChem SID | G2 robust z-score
OSBP2 | SID160736851 | 0.291
TIA1 | SID160718066 | 1.52

The listing continues.
Knock-down of TMEM266 [SID160756081] gave: G2 robust z-score -0.0975. After knock-down of TMEM266 [SID160756082], the screen gave G2 robust z-score 1.96. Knock-down of TMEM266 [SID160756083] gave: G2 robust z-score -0.629. Against PTPN22 [SID160737757], the entry reads G2 robust z-score 0.295. Silencing of PTPN22 [SID160737758] resulted in: G2 robust z-score -1.24. With knock-down of PTPN22 [SID160737759], the screen gave G2 robust z-score -0.379.

Depletion of MSH6 [SID160774672] came out at: G2 robust z-score -0.962. For MSH6 [SID160774673], the entry reads G2 robust z-score 0.558. MSH6 [SID160774674] scored G2 robust z-score 2.2.
